Laboratory results published in patent US9664690B1, “Molecular diagnostic kits for evaluating stress” (The National Institute for Biotechnology in the Negev Ltd., priority 2013, dated 2017).
At least one compound was matched to its structure with a doubt left.

Assays:
[1] = test system: Splenocytes; experiment: Cytokine production of anti-CD3 stimulated splenocytes from stressed and non-stressed mice with or without MP (ELISA); format: cell-based; conditions: splenocytes of CVS-stressed vs non-stressed female mice, anti-CD3 48 hours, MP 10, 100 or 1000 ng/ml
[2] = test system: immune cell subsets; experiment: Immunosuppressive effect of MP on stimulated immune cell subsets, healthy young subjects versus autoimmune patients; format: cell-based, human; conditions: patients with autoimmune diseases vs healthy young subjects, mainly IFNg producing cells
[3] = test system: PBMCs; experiment: Cytokine production of anti-CD3 stimulated PBMCs from young, aged and AD patients in presence of MP (ELISA); format: cell-based, human; conditions: aged and AD vs young subjects, plate-bound anti-CD3 48 hours

## C[C@H]1C[C@@H]2[C@H]([C@@H](O)C[C@@]3(C)[C@H]2CC[C@]3(O)C(=O)CO)[C@@]2(C)C=CC(=O)C=C12 [MP, methylprednisolone]
[1]
  T-cell sensitivity to the immunosuppressive effects of MP (cytokine production): decreased T-cell sensitivity
[2]
  immunosuppressive effect of MP on immune cell subsets following stimulation: impaired immunosuppressive effect
[3]
  sensitivity of stimulated PBMCs to the immunosuppressive effects of MP (IL-2, IFN-g, IL-10): decreases the sensitivity
